Data from patent publication US20250283871A1, “COMPOSITIONS AND METHODS FOR MODULATING THE INTERACTION BETWEEN SS18-SSX FUSION ONCOPROTEIN AND NUCLEOSOMES” (Dana-Farber Cancer Institute, Inc., priority 2020, published 2025).

B1: DKC1 (protein, UniProt O60832 2-514, looked up)
H/ACA ribonucleoprotein …: ADAEVIILPKKHKKKKERKSLPEEDVAEIQHAEEFLIKPESKVAKLDTSQWPLLLKNFDKLNVRTTHYTPLACGSNPLKREIGDYIRTGFINLDKPSNPSSHEVVAWIRRILRVEKTGHSGTLDPKVTGCLIVCIERATRLVKSQQSAGKEYVGIVRLHNAIEGGTQLSRALETLTGALFQRPPLIAAVKRQLRVRTIYESKMIEYDPERRLGIFWVSCEAGTYIRTLCVHLGLLLGVGGQMQELRRVRSGVMSEKDHMVTMHDVLDAQWLYDNHKDESYLRRVVYPLEKLLTSHKRLVMKDSAVNAICYGAKIMLPGVLRYEDGIEVNQEIVVITTKGEAICMAIALMTTAVISTCDHGIVAKIKRVIMERDTYPRKWGLGPKASQKKLMIKQGLLDKHGKPTDSTPATWKQEYVDYSESAKKEVVAEVVKAPQVVAEAAKTAKRKRESESESDETPPAAPQLIKKEKKKSKKDKKAKAGLESGAEPGDGDSDTTKKKKKKKKAKEVELVSE
B2: BCL7B: BAF complex subunit quantified in the IP MS (protein, UniProt Q9BQE9 1-202, looked up)
B-cell CLL/lymphoma 7 protein …: MSGRSVRAETRSRAKDDIKKVMAAIEKVRKWEKKWVTVGDTSLRIFKWVPVTDSKEKEKSKSNSSAAREPNGFPSDASANSSLLLEFQDENSNQSSVSDVYQLKVDSSTNSSPSPQQSESLSPAHTSDFRTDDSQPPTLGQEILEEPSLPSSEVADEPPTLTKEEPVPLETQVVEEEEDSGAPPLKRFCVDQPTVPQTASES
B3: CCDC86 (protein, UniProt Q9H6F5 1-360, looked up)
Coiled-coil domain-containing …: MDTPLRRSRRLGGLRPESPESLTSVSRTRRALVEFESNPEETREPGSPPSVQRAGLGSPERPPKTSPGSPRLQQGAGLESPQGQPEPGAASPQRQQDLHLESPQRQPEYSPESPRCQPKPSEEAPKCSQDQGVLASELAQNKEELTPGAPQHQLPPVPGSPEPYPGQQAPGPEPSQPLLELTPRAPGSPRGQHEPSKPPPAGETVTGGFGAKKRKGSSSQAPASKKLNKEELPVIPKGKPKSGRVWKDRSKKRFSQMLQDKPLRTSWQRKMKERQERKLAKDFARHLEEEKERRRQEKKQRRAENLKRRLENERKAEVVQVIRNPAKLKRAKKKQLRSIEKRDTLALLQKQPPQQPAAKI
B4: PRPF19 (protein, UniProt Q9UMS4 2-504, looked up)
Pre-mRNA-processing factor 19: SLICSISNEVPEHPCVSPVSNHVYERRLIEKYIAENGTDPINNQPLSEEQLIDIKVAHPIRPKPPSATSIPAILKALQDEWDAVMLHSFTLRQQLQTTRQELSHALYQHDAACRVIARLTKEVTAAREALATLKPQAGLIVPQAVPSSQPSVVGAGEPMDLGELVGMTPEIIQKLQDKATVLTTERKKRGKTVPEELVKPEELSKYRQVASHVGLHSASIPGILALDLCPSDTNKILTGGADKNVVVFDKSSEQILATLKGHTKKVTSVVFHPSQDLVFSASPDATIRIWSVPNASCVQVVRAHESAVTGLSLHATGDYLLSSSDDQYWAFSDIQTGRVLTKVTDETSGCSLTCAQFHPDGLIFGTGTMDSQIKIWDLKERTNVANFPGHSGPITSIAFSENGYYLATAADDSSVKLWDLRKLKNFKTLQLDNNFEVKSLIFDQSGTYLALGGTDVQIYICKQWTEILHFTEHSGLTTGVAFGHHAKFIASTGMDRSLKFYSL
B5: TRA2A (protein, UniProt Q13595 2-282, looked up)
Transformer-2 protein homolog …: SDVEENNFEGRESRSQSKSPTGTPARVKSESRSGSRSPSRVSKHSESHSRSRSKSRSRSRRHSHRRYTRSRSHSHSHRRRSRSRSYTPEYRRRRSRSHSPMSNRRRHTGSRANPDPNTCLGVFGLSLYTTERDLREVFSRYGPLSGVNVVYDQRTGRSRGFAFVYFERIDDSKEAMERANGMELDGRRIRVDYSITKRAHTPTPGIYMGRPTHSGGGGGGGGGGGGGGGGRRRDSYYDRGYDRGYDRYEDYDYRYRRRSPSPYYSRYRSRSRSRSYSPRRY
B6: MPHOSPH10 (protein, UniProt O00566 1-681, looked up)
U3 small nucleolar …: MAPQVWRRRTLERCLTEVGKATGRPECFLTIQEGLASKFTSLTKVLYDFNKILENGRIHGSPLQKLVIENFDDEQIWQQLELQNEPILQYFQNAVSETINDEDISLLPESEEQEREEDGSEIEADDKEDLEDLEEEEVSDMGNDDPEMGERAENSSKSDLRKSPVFSDEDSDLDFDISKLEQQSKVQNKGQGKPREKSIVDDKFFKLSEMEAYLENIEKEEERKDDNDEEEEDIDFFEDIDSDEDEGGLFGSKKLKSGKSSRNLKYKDFFDPVESDEDITNVHDDELDSNKEDDEIAEEEAEELSISETDEDDDLQENEDNKQHKESLKRVTFALPDDAETEDTGVLNVKKNSDEVKSSFEKRQEKMNEKIASLEKELLEKKPWQLQGEVTAQKRPENSLLEETLHFDHAVRMAPVITEETTLQLEDIIKQRIRDQAWDDVVRKEKPKEDAYEYKKRLTLDHEKSKLSLAEIYEQEYIKLNQQKTAEEENPEHVEIQKMMDSLFLKLDALSNFHFIPKPPVPEIKVVSNLPAITMEEVAPVSVSDAALLAPEEIKEKNKAGDIKTAAEKTATDKKRERRKKKYQKRMKIKEKEKRRKLLEKSSVDQAGKYSKTVASEKLKQLTKTGKASFIKDEGKDKALKSSQAFFSKLQDQVKMQINDAKKTEKKKKKRQDISVHKLKL
B7: FTSJ3 (protein, UniProt Q8IY81 1-847, looked up)
pre-rRNA 2'-O-ribose RNA …: MGKKGKVGKSRRDKFYHLAKETGYRSRSAFKLIQLNRRFQFLQKARALLDLCAAPGGWLQVAAKFMPVSSLIVGVDLVPIKPLPNVVTLQQDITTERCRQALRKELKTWKVDVVLNDGAPNVGASWVHDAYSQAHLTLMALRLACDFLARGGSFITKVFRSRDYQPLLWIFQQLFRRVQATKPQASRHESAEIFVVCQGFLAPDKVDSKFFDPKFAFKEVEVQAKTVTELVTKKKPKAEGYAEGDLTLYHRTSVTDFLRAANPVDFLSKASEIMVDDEELAQHPATTEDIRVCCQDIRVLGRKELRSLLNWRTKLRRYVAKKLKEQAKALDISLSSGEEDEGDEEDSTAGTTKQPSKEEEEEEEEEQLNQTLAEMKAQEVAELKRKKKKLLREQRKQRERVELKMDLPGVSIADEGETGMFSLSTIRGHQLLEEVTQGDMSAADTFLSDLPRDDIYVSDVEDDGDDTSLDSDLDPEELAGVRGHQGLRDQKRMRLTEVQDDKEEEEEENPLLVPLEEKAVLQEEQANLWFSKGSFAGIEDDADEALEISQAQLLFENRRKGRQQQQKQQLPQTPPSCLKTEIMSPLYQDEAPKGTEASSGTEAATGLEGEEKDGISDSDSSTSSEEEESWEPLRGKKRSRGPKSDDDGFEIVPIEDPAKHRILDPEGLALGAVIASSKKAKRDLIDNSFNRYTFNEDEGELPEWFVQEEKQHRIRQLPVGKKEVEHYRKRWREINARPIKKVAEAKARKKRRMLKRLEQTRKKAEAVVNTVDISEREKVAQLRSLYKKAGLGKEKRHVTYVVAKKGVGRKVRRPAGVRGHFKVVDSRMKKDQRAQQRKEQKKKHKRK
B8: DNTTIP2 (protein, UniProt Q5QJE6 1-756, looked up)
Deoxynucleotidyltransferase …: MVVTRSARAKASIQAASAESSGQKSFAANGIQAHPESSTGSDARTTAESQTTGKQSLIPRTPKARKRKSRTTGSLPKGTEPSTDGETSEAESNYSVSEHHDTILRVTRRRQILIACSPVSSVRKKPKVTPTKESYTEEIVSEAESHVSGISRIVLPTEKTTGARRSKAKSLTDPSQESHTEAISDAETSSSDISFSGIATRRTRSMQRKLKAQTEKKDSKIVPGNEKQIVGTPVNSEDSDTRQTSHLQARSLSEINKPNFYNNDFDDDFSHRSSENILTVHEQANVESLKETKQNCKDLDEDANGITDEGKEINEKSSQLKNLSELQDTSLQQLVSQRHSTPQNKNAVSVHSNLNSEAVMKSLTQTFATVEVGRWNNNKKSPIKASDLTKFGDCGGSDDEEESTVISVSEDMNSEGNVDFECDTKLYTSAPNTSQGKDNSVLLVLSSDESQQSENSENEEDTLCFVENSGQRESLSGDTGSLSCDNALFVIDTTPGMSADKNFYLEEEDKASEVAIEEEKEEEEDEKSEEDSSDHDENEDEFSDEEDFLNSTKAKLLKLTSSSIDPGLSIKQLGGLYINFNADKLQSNKRTLTQIKEKKKNELLQKAVITPDFEKNHCVPPYSESKYQLQKKRRKERQKTAGDGWFGMKAPEMTNELKNDLKALKMRASMDPKRFYKKNDRDGFPKYFQIGTIVDNPADFYHSRIPKKQRKRTIVEELLADSEFRRYNRRKYSEIMAEKAANAAGKKFRKKKKFRN

system: BAF complex subunits and histone proteins; assay: Mass spectrometry proteomics of purified HA-SS18 WT and HA-SS18-SSX1 complexes (Tables 5A-5E); design: species or system human; conditions: HA-SS18SSX1_CHR_peptides: protein identified in the HA-SS18-SSX1 purification from solubilized chromatin (CHR), HEK-293T

Row | Molecule | Total (total peptides) | Unique (unique peptides)
1 | B1 | 8 | 7
2 | B2 | 8 | 5
3 | B3 | 8 | 7
4 | B4 | 8 | 7
5 | B5 | 8 | 4
6 | B6 | 7 | 7
7 | B7 | 7 | 7
8 | B8 | 8 | 8

same assay, conditions: HA-SS18SSX1 purification, NE (soluble nuclear extract) fraction, HEK-293T; peptides per identified protein

Row | Molecule | Total (total peptides) | Unique (unique peptides)
9 | B2 | 4 | 4
10 | B4 | 3 | 3

same assay, conditions: HA-SS18WT_CHR_peptides: HA-SS18 WT purification from nuclease-treated solubilized chromatin (CHR), HEK-293T; label = protein identified

Row | Molecule | Total (peptides) | Unique (peptides)
11 | B2 | 3 | 3
12 | B3 | 7 | 7
13 | B4 | 3 | 3
14 | B6 | 7 | 6
15 | B7 | 12 | 12
16 | B8 | 7 | 5

same assay, conditions: HA-SS18WT_CHR_peptides: protein identified in HA-SS18 WT BAF complex purification from nuclease-treated solubilized chromatin (CHR), HEK-293T

Row | Molecule | Total (total peptides) | Unique (unique peptides)
17 | B1 | 1 | 1
18 | B5 | 2 | 2

same assay, conditions: HA-SS18WT_NE_peptides: HA-SS18 WT complexes purified from nuclear extract (NE), HEK-293T; label = protein identified (Gene Symbol)

Row | Molecule | Total (peptides) | Unique (peptides)
19 | B2 | 12 | 5

same assay, conditions: HA-SS18WT_NE_peptides: proteins co-purified with HA-SS18 WT from nuclear extract (NE), HEK-293T

Row | Molecule | Total (peptides) | Unique (peptides)
20 | B4 | 1 | 1
